Measurements: paper PMC3805608
No constants are given. Whether binding was seen depends on the method and setting. For some assays here: A result given as binding can be weak or reduced; the word gives no strength. For some assays here: In cells and extracts the contact can be indirect.

Protein sequences, listed by entry. Tags and fused reporters are not part of them. Lines headed by an entry give the natural chain unless they say otherwise; changes in a name come on top. Residues count along the entry.
UniProt E2QC84: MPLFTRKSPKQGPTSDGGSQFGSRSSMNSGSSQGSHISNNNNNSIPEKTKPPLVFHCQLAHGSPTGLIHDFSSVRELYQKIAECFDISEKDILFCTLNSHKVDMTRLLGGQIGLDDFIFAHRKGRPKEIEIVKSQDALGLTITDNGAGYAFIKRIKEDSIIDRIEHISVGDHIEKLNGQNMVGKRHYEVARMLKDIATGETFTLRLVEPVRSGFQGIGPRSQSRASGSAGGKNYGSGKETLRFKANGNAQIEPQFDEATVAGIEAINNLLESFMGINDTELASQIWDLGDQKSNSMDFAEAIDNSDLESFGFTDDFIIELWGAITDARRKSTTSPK
UniProt P16378: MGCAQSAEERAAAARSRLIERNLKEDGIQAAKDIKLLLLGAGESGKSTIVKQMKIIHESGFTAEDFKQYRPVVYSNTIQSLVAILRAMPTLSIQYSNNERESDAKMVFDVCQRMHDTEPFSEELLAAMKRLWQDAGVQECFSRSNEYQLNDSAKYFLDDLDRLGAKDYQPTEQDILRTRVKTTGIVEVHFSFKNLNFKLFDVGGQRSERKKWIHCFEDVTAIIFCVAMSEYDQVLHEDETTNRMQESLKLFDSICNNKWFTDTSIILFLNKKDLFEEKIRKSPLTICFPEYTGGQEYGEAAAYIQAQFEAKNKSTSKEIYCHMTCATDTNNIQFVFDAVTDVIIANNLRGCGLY
UniProt P18537, residues 19-581: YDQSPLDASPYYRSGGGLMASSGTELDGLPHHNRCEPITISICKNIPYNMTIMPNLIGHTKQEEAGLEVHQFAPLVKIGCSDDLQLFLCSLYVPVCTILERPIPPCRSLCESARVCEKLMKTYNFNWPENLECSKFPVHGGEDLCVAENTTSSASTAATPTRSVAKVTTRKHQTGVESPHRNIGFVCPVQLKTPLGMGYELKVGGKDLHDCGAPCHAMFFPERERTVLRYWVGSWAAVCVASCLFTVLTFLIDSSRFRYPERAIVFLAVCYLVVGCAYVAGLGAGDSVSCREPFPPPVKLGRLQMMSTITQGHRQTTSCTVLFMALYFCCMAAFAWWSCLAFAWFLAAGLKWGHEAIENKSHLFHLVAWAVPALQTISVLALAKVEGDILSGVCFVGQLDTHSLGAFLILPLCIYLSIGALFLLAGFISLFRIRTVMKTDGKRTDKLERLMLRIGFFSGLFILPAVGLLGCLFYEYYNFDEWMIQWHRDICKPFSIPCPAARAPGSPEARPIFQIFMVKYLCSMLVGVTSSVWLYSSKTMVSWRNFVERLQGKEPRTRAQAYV

How the values were obtained:
[1] = target: MBP-Kermit (Drosophila) (UniProt E2QC84); assay: pull-down; MBP-Kermit, His6-CG5036 or His6-Rab5 linked on CNBr-activated Sepharose; MBP-Fz from bacterial membranes solubilized with 10 mM CHAPS (30 min, 4°C); 3 h at 4°C, Western blot; only the target purified
[2] = target: His6-Gαo (Drosophila) (UniProt P16378); assay: pull-down; His6-Gαo (preloaded with 1 mM GDP or GTPγS) or control GST covalently linked on CNBr-activated Sepharose; soluble MBP-Kermit preparation (with cleaved MBP) added; HKB buffer (50 mM HEPES-NaOH, 100 mM KCl, 10 mM NaCl, 1 mM DTT, 5 mM MgCl2, pH 7.5), 3 h at 4°C, 5 washes, elution with 8 M urea, Western blot; both purified
[3] = target: MBP-Kermit (Drosophila) (UniProt E2QC84); assay: pull-down; MBP-Kermit immobilised (amylose resin by the results, CNBr-Sepharose by the methods); soluble purified Gαo, human RGS19 or CG5036 added in equimolar amounts; HKB buffer, 3 h at 4°C, Western blot; both purified
[4] = target: MBP-Kermit (Drosophila) (UniProt E2QC84); assay: pull-down; MBP-Kermit immobilised on matrix; Drosophila head extracts from GMR-Gal4; UAS-Gαo flies; 3 h at 4°C, Western blot with anti-Gαo/i3; only the target purified
[5] = target: MBP-Kermit (Drosophila) (UniProt E2QC84); assay: pull-down; MBP-Kermit immobilised (amylose resin by the results, CNBr-Sepharose by the methods); soluble purified Gαo, human RGS19 or CG5036 added in equimolar amounts; HKB buffer, 3 h at 4°C, Western blot; both purified; remark: listed apart in the source

Q: How did the binding [1] turn out when “MBP-Fz (from UniProt P18537 19-581) (receptor)” was run?
A: no binding

Q: MBP-Kermit (from UniProt E2QC84) was tested. Which binding [2] did it give?
A: binds

Q: With His6-Gαo (from UniProt P16378 1-354) as the molecule, how does the binding [3] read?
A: binds

Q: “Gαo from Drosophila head extracts (from UniProt P16378 1-354)” was tested. Which binding [4] did it give?
A: binds

B1: human RGS19 (protein, UniProt P49795 1-217)
chain: MPTPHEAEKQITGPEEADRPPSMSSHDTASPAAPSRNPCCLCWCCCCSCSWNQERRRAWQASRESKLQPLPSCEVCATPSPEEVQSWAQSFDKLMHSPAGRSVFRAFLRTEYSEENMLFWLACEELKAEANQHVVDEKARLIYEDYVSILSPKEVSLDSRVREGINKKMQEPSAHTFDDAQLQIYTLMHRDSYPRFLSSPTYRALLLQGPSQSSSEA
Q: With B1 as the molecule, how does the binding [5] read?
A: binds
